Here are results for 16 molecules from paper doi:10.1101/2019.12.23.887547.

Sequences of proteins named here, by UniProt entry; tags and fusion partners are left off.
UniProt P83916: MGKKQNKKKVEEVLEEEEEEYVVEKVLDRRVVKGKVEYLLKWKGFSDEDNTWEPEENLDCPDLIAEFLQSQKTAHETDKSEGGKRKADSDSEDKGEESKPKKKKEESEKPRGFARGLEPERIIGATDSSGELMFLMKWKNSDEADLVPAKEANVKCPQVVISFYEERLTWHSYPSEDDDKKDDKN
UniProt Q13185: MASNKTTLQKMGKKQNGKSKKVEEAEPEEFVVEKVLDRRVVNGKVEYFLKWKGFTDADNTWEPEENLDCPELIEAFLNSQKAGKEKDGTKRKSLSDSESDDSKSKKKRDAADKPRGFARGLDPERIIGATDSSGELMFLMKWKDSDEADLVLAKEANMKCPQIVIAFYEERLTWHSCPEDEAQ
UniProt P45973: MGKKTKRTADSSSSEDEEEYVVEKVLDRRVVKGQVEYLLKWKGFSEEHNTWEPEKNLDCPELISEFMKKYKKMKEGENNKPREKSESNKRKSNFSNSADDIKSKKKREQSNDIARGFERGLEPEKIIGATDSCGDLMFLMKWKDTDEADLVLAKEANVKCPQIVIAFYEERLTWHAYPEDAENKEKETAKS
UniProt O75530: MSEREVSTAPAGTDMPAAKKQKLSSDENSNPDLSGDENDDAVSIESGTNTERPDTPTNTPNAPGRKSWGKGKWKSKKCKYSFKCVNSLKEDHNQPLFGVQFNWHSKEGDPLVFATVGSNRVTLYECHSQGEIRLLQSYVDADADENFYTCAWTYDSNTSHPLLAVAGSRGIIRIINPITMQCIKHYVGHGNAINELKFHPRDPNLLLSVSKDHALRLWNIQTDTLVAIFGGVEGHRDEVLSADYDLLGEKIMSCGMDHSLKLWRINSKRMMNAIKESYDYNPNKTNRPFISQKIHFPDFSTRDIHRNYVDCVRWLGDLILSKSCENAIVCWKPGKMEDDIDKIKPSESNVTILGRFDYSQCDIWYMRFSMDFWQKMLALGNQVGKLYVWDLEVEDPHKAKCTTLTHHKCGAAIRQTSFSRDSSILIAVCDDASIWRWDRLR
UniProt Q969R5: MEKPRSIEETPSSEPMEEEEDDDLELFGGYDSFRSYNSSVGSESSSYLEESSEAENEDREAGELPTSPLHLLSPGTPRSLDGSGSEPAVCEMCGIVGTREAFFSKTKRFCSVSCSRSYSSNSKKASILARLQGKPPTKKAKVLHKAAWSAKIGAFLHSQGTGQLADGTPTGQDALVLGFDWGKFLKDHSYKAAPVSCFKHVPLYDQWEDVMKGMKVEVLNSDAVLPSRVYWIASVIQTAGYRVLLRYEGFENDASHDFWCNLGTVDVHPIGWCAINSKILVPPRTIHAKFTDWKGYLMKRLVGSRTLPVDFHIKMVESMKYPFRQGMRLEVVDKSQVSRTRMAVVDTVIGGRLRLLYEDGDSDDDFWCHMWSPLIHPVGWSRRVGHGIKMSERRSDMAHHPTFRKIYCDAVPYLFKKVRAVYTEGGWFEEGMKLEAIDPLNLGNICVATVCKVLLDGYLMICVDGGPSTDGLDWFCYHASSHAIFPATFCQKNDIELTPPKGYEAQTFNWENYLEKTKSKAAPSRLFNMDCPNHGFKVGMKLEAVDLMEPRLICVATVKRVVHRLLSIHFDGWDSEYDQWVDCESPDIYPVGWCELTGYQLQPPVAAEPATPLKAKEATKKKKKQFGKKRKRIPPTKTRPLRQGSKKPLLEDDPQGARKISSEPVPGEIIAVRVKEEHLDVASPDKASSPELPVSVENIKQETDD
UniProt Q8IZL8: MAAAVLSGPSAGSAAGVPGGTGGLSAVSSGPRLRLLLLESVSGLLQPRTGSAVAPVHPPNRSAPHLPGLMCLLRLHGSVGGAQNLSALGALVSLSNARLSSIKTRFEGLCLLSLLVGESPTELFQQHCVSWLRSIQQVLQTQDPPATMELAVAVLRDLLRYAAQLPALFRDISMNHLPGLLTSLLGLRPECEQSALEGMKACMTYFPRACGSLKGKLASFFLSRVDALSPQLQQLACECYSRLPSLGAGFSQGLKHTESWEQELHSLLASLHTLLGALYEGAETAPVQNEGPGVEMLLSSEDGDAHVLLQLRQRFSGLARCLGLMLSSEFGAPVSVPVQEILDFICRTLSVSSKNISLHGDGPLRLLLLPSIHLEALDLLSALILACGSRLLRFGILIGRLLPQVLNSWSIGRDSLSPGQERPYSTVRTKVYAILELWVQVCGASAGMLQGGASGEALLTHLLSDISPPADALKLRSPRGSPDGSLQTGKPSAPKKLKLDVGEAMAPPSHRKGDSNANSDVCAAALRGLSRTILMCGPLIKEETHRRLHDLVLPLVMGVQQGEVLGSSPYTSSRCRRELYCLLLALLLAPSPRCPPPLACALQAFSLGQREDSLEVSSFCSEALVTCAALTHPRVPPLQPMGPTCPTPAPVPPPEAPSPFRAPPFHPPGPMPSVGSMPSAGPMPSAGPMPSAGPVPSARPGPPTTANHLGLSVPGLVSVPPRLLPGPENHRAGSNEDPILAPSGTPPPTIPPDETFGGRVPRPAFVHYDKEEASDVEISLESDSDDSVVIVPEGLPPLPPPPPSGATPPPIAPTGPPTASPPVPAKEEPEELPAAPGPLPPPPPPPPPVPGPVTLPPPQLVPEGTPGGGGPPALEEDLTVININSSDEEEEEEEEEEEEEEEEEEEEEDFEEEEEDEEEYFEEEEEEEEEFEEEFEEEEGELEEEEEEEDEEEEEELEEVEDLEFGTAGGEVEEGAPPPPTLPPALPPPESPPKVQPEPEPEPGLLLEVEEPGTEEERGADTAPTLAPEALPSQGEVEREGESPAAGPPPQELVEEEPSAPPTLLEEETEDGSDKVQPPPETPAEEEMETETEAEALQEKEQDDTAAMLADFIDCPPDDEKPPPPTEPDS
UniProt Q99496: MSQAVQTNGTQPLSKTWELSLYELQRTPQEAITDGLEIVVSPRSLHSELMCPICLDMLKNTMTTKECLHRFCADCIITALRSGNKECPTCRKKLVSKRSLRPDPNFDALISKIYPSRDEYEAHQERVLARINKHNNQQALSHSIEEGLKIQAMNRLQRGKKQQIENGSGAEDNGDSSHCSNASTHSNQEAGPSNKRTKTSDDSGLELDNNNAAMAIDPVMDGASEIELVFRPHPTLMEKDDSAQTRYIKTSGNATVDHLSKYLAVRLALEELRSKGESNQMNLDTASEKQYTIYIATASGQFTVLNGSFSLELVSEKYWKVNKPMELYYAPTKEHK
UniProt Q9H4L4: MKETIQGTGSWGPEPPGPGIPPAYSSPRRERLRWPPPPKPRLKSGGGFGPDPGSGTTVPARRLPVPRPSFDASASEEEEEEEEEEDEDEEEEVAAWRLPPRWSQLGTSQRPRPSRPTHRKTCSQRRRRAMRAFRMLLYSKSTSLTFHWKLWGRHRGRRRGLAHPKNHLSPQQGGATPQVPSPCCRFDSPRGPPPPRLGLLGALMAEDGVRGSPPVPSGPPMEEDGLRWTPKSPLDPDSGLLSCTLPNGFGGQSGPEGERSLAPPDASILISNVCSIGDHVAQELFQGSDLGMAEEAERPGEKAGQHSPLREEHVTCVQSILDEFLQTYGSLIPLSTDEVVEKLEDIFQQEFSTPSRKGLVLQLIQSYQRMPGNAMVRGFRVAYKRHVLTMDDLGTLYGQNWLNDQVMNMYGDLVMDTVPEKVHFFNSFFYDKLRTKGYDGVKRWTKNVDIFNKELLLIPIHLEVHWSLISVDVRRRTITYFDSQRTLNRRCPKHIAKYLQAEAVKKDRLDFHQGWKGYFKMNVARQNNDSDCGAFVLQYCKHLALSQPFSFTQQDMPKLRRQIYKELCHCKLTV
UniProt Q15022: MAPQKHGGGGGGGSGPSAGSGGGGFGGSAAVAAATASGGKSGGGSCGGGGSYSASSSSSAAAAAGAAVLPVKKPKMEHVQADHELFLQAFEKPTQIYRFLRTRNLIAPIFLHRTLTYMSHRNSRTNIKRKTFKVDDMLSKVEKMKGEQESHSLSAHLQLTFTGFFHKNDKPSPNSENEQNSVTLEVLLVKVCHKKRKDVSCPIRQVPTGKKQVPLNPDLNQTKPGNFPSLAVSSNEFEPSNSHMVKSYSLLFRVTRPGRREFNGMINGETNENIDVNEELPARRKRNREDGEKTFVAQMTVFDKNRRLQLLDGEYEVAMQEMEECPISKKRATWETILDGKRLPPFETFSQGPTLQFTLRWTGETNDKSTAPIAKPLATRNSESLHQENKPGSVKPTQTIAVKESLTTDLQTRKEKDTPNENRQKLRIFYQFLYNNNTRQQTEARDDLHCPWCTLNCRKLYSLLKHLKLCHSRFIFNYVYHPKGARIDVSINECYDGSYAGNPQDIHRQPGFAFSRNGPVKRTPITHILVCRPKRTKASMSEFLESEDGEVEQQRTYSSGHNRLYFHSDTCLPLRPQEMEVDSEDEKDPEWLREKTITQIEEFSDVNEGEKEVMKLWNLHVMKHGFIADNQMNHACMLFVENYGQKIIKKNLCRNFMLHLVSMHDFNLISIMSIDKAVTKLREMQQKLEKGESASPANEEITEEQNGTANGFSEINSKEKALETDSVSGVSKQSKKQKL
UniProt Q93009: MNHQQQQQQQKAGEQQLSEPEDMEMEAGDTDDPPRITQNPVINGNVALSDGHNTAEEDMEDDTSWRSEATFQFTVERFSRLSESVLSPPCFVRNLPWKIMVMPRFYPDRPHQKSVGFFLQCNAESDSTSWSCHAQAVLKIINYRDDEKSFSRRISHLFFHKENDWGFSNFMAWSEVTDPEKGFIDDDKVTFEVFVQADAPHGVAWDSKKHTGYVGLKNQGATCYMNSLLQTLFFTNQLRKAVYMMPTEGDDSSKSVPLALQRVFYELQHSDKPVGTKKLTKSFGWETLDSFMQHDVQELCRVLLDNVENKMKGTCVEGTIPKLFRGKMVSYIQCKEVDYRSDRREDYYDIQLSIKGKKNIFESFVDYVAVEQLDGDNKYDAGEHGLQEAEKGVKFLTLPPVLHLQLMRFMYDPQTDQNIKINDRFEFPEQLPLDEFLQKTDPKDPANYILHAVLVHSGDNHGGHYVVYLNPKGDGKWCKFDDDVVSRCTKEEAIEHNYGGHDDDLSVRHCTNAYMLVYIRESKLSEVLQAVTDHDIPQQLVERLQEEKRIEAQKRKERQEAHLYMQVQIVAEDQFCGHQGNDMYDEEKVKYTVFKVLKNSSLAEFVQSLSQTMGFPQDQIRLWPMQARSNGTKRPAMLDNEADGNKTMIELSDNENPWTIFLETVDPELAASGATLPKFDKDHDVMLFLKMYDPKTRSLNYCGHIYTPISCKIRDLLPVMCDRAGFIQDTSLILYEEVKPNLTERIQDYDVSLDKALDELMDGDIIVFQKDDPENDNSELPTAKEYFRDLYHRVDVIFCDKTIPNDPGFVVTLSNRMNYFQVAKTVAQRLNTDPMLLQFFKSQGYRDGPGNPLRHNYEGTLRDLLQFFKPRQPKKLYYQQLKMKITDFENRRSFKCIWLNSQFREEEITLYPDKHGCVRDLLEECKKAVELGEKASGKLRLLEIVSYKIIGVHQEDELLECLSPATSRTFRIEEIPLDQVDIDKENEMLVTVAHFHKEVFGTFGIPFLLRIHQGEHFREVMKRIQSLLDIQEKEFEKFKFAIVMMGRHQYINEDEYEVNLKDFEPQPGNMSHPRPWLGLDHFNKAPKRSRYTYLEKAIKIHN

Assay [1] has as its target T1, 3xFlag-NOL9 (human (endogenous in HEK293FT)) (UniProt Q5SY16).
T1 sequence: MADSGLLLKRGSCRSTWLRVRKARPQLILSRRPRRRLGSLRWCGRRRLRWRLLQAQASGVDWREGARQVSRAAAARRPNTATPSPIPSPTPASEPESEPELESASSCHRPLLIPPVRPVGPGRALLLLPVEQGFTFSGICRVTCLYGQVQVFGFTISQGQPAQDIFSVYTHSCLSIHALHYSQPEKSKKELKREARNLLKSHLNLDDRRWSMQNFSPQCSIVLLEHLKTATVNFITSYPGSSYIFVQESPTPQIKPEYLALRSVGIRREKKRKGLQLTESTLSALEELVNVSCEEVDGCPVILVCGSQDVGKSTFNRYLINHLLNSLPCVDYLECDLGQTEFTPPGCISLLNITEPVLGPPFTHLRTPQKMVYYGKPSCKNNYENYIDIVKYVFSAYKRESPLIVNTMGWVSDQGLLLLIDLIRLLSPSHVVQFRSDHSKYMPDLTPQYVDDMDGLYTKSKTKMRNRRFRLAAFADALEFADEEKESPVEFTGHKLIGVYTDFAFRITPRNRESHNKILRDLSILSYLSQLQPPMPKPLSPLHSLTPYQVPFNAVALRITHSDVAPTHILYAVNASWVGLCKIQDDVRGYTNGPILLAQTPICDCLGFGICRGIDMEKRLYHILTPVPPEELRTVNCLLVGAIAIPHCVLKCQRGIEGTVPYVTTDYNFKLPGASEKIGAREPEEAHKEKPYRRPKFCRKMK
Description: affinity purification with mass spectrometry.

The target in assay [2] is T2, 3xFlag-WDR18 (human (endogenous in HEK293FT)) (UniProt Q9BV38).
T2 sequence: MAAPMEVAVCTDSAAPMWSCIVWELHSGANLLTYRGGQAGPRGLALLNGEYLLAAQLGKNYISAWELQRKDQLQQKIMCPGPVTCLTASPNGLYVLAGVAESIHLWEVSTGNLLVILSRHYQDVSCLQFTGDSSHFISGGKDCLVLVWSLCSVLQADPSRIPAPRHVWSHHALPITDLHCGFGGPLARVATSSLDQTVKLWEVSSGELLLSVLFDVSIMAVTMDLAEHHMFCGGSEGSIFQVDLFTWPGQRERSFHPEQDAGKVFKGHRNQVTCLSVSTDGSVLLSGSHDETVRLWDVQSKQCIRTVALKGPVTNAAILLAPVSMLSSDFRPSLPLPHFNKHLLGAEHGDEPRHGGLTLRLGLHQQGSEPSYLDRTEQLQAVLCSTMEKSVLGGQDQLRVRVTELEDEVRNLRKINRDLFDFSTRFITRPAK
Description: affinity purification with mass spectrometry.

These are yes or no findings as the source states them, for the method shown. Binding seen in cells or lysates may run through a third protein. These calls come from enrichment with a bait or labelling near it, and not all partners need be listed. For some of these results: No binding means not detected with the bait. Sequences can lack the tags named with a protein.

In the case of CBX1 (from UniProt P83916 1-185), the binding entry in assay [1] is “no binding”.

For CBX3 (from UniProt Q13185 1-183), in assay [1], the binding entry was “no binding”.

Regarding CBX5 (from UniProt P45973 1-191), the binding entry in assay [1] is given as “no binding”.

On to EED (from UniProt O75530 1-441), for which the binding result in assay [1] is “binds”.

Consider L3MBTL2 (from UniProt Q969R5 1-705), for which the binding result in assay [1] is listed as “binds”.

For MDN1 (from UniProt Q9NU22 1-5596), the binding result in assay [1] and in assay [2] was “binds” each time.

Turning to PELP1 (from UniProt Q8IZL8 1-1130), the binding entry in assay [1] and in assay [2] was “binds” each time.

As for RING1B (from UniProt Q99496 1-336), the binding entry in assay [1] and in assay [2] was “binds” each time.

Take SENP3 (from UniProt Q9H4L4 1-574): the binding entry in assay [1] and in assay [2] was “binds” throughout.

Consider SUZ12 (from UniProt Q15022 1-739), for which the binding result in assay [1] is reported as “binds”.

Take USP7 (from UniProt Q93009 1-1102): the binding entry in assay [1] and in assay [2] was “binds” in each case.

B1: NOL9 (protein, UniProt Q5SY16 1-702)
chain: T1 sequence
With B1, the binding entry in assay [2] was “binds”.

B2: LAS1L (protein, UniProt Q9Y4W2 1-734)
chain: MSWESGAGPGLGSQGMDLVWSAWYGKCVKGKGSLPLSAHGIVVAWLSRAEWDQVTVYLFCDDHKLQRYALNRITVWRSRSGNELPLAVASTADLIRCKLLDVTGGLGTDELRLLYGMALVRFVNLISERKTKFAKVPLKCLAQEVNIPDWIVDLRHELTHKKMPHINDCRRGCYFVLDWLQKTYWCRQLENSLRETWELEEFREGIEEEDQEEDKNIVVDDITEQKPEPQDDGKSTESDVKADGDSKGSEEVDSHCKKALSHKELYERARELLVSYEEEQFTVLEKFRYLPKAIKAWNNPSPRVECVLAELKGVTCENREAVLDAFLDDGFLVPTFEQLAALQIEYEDGQTEVQRGEGTDPKSHKNVDLNDVLVPKPFSQFWQPLLRGLHSQNFTQALLERMLSELPALGISGIRPTYILRWTVELIVANTKTGRNARRFSAGQWEARRGWRLFNCSASLDWPRMVESCLGSPCWASPQLLRIIFKAMGQGLPDEEQEKLLRICSIYTQSGENSLVQEGSEASPIGKSPYTLDSLYWSVKPASSSFGSEAKAQQQEEQGSVNDVKEEEKEEKEVLPDQVEEEEENDDQEEEEEDEDDEDDEEEDRMEVGPFSTGQESPTAENARLLAQKRGALQGSAWQVSSEDVRWDTFPLGRMPGQTEDPAELMLENYDTMYLLDQPVLEQRLEPSTCKTDTLGLSCGVGSGNCSNSSSSNFEGLLWSQGQLHGLKTGLQLF
On to B2, for which, in assay [2], the binding entry was “binds”.

B3: WDR18 (protein, UniProt Q9BV38 1-432)
chain: T2 sequence
Consider B3, for which, in assay [1], the binding entry is “binds”.

B4: RYBP (protein, UniProt Q8N488 1-228)
chain: MTMGDKKSPTRPKRQAKPAADEGFWDCSVCTFRNSAEAFKCSICDVRKGTSTRKPRINSQLVAQQVAQQYATPPPPKKEKKEKVEKQDKEKPEKDKEISPSVTKKNTNKKTKPKSDILKDPPSEANSIQSANATTKTSETNHTSRPRLKNVDRSTAQQLAVTVGNVTVIITDFKEKTRSSSTSSSTVTSSAGSEQQNQSSSGSESTDKGSSRSSTPKGDMSAVNDESF
As for B4, the binding entry in assay [2] is “binds”.

B5: TEX10 (protein, UniProt Q9NXF1 1-929)
chain: MTKKRKRQHDFQKVKLKVGKKKPKLQNATPTNFKTKTIHLPEQLKEDGTLPTNNRKLNIKDLLSQMHHYNAGVKQSALLGLKDLLSQYPFIIDAHLSNILSEVTAVFTDKDANVRLAAVQLLQFLAPKIRAEQISPFFPLVSAHLSSAMTHITEGIQEDSLKVLDILLEQYPALITGRSSILLKNFVELISHQQLSKGLINRDRSQSWILSVNPNRRLTSQQWRLKVLVRLSKFLQALADGSSRLRESEGLQEQKENPHATSNSIFINWKEHANDQQHIQVYENGGSQPNVSSQFRLRYLVGGLSGVDEGLSSTENLKGFIEIIIPLLIECWVEAVPPQLATPVGNGIEREPLQVMQQVLNIISLLWKLSKQQDETHKLESWLRKNYLIDFKHHFMSRFPYVLKEITKHKRKEPNKSIKHCTVLSNNIDHLLLNLTLSDIMVSLANASTLQKDCSWIEMIRKFVTETLEDGSRLNSKQLNRLLGVSWRLMQIQPNREDTETLIKAVYTLYQQRGLILPVRTLLLKFFSKIYQTEELRSCRFRYRSKVLSRWLAGLPLQLAHLGSRNPELSTQLIDIIHTAAARANKELLKSLQATALRIYDPQEGAVVVLPADSQQRLVQLVYFLPSLPADLLSRLSRCCIMGRLSSSLAAMLIGILHMRSSFSGWKYSAKDWLMSDVDYFSFLFSTLTGFSKEELTWLQSLRGVPHVIQTQLSPVLLYLTDLDQFLHHWDVTEAVFHSLLVIPARSQNFDILQSAISKHLVGLTVIPDSTAGCVFGVICKLLDHTCVVSETLLPFLASCCYSLLYFLLTIEKGEAEHLRKRDKLWGVCVSILALLPRVLRLMLQSLRVNRVGPEELPVVGQLLRLLLQHAPLRTHMLTNAILVQQIIKNITTLKSGSVQEQWLTDLHYCFNVYITGHPQGPSALATVY
Regarding B5, the binding result in assay [1] and in assay [2] was “binds” throughout.
